Measurements reported in PubChem BioAssay AID504774 (Drosophila RNAi Screening Center, 2011).

Purpose: 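Fly genes whose loss alters survival after alkylation damage to DNA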 (primary screen)
Cells: Drosophila Kc167 cells
Reagent: long dsRNA against Drosophila genes, about 0.25 µg dsRNA per well
Timing: about 6 days: 3 days knock-down, then 3 days with or without MMS
Treatment: methyl methanesulphonate 0.004% (w/v) for 3 days after knock-down
Read-out: 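ATP-dependent luminescence as a measure of live cells in MMS-exposed wells, quantile normalised within each plate, with replicate values also given as a mean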
Direction: mean viability with MMS and viability with MMS: higher = more surviving cells after MMS
The screen tested about 23,000 reagents; shown is an unselected part of those that have a named target and a result. 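Values are quantile-normalised luminescence on an arbitrary scale; higher means more cells surviving MMS.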 Names joined by + are all predicted targets of the reagent. Not all columns of the deposit are shown.

After knock-down of lncRNA:CR30009 [DRSC22952], the record shows mean viability with MMS 3.61e6; viability with MMS, replicate 1 = 4.08e6.
Silencing of ste24c + CG30461 [DRSC05639] resulted in: mean viability with MMS 3.80e6; viability with MMS, replicate 1 = 4.71e6.
Against ste24c + CG30461 [DRSC07316], the values are mean viability with MMS 3.74e6; viability with MMS, replicate 1 = 4.11e6.
Against cpb [DRSC00809], the entry reads mean viability with MMS 3.58e6; viability with MMS, replicate 1 = 3.83e6.
Gnptab [DRSC07057] gave mean viability with MMS 3.69e6; viability with MMS, replicate 1 = 4.07e6.
Against kud [DRSC11086], the entry reads mean viability with MMS 3.54e6; viability with MMS, replicate 1 = 4.01e6.
Knock-down of unc79 [DRSC15746] came out at: mean viability with MMS 3.69e6; viability with MMS, replicate 1 = 4.18e6.
CG7139 [DRSC11611] scored mean viability with MMS 3.64e6; viability with MMS, replicate 1 = 4.14e6.
For sel [DRSC06232], the values are mean viability with MMS 3.68e6; viability with MMS, replicate 1 = 4.25e6.
Silencing of nAChRalpha5 [DRSC01360] came out at: mean viability with MMS 3.73e6; viability with MMS, replicate 1 = 4.06e6.
Silencing of nAChRalpha5 [DRSC01946] gave: mean viability with MMS 3.48e6; viability with MMS, replicate 1 = 4.04e6.
Against nAChRalpha5 [DRSC01947], the entry reads mean viability with MMS 3.66e6; viability with MMS, replicate 1 = 4.16e6.
Depletion of nAChRalpha5 [DRSC22785] came out at: mean viability with MMS 3.36e6; viability with MMS, replicate 1 = 3.90e6.
Silencing of Klf15 [DRSC17742] came out at: mean viability with MMS 3.61e6; viability with MMS, replicate 1 = 4.06e6.
CG17698 [DRSC11907] showed mean viability with MMS 3.59e6; viability with MMS, replicate 1 = 4.01e6.
With knock-down of Bsg [DRSC01010], the screen gave mean viability with MMS 3.30e6; viability with MMS, replicate 1 = 3.74e6.
After knock-down of Bsg [DRSC01011] the results were mean viability with MMS 3.84e6; viability with MMS, replicate 1 = 4.41e6.
Against CG17777 [DRSC18137], the values are mean viability with MMS 3.75e6; viability with MMS, replicate 1 = 4.22e6.

Laid out differently: entries from further up.
gene,amplicon,mean viability with MMS,"viability with MMS, replicate 1"
nAChRalpha5,DRSC01946,3.48e6,4.04e6
nAChRalpha5,DRSC01947,3.66e6,4.16e6

Continued:
Silencing of CG4678 [DRSC19911] resulted in: mean viability with MMS 3.57e6; viability with MMS, replicate 1 = 4.04e6.
Knock-down of CG4678 [DRSC19912] resulted in: mean viability with MMS 3.61e6; viability with MMS, replicate 1 = 4.10e6.
After knock-down of CR31824 [DRSC01517], the screen gave mean viability with MMS 3.47e6; viability with MMS, replicate 1 = 3.93e6.
Prat [DRSC16797] scored mean viability with MMS 3.34e6; viability with MMS, replicate 1 = 3.81e6.
Against CG5800 [DRSC19962], the values are mean viability with MMS 3.44e6; viability with MMS, replicate 1 = 3.89e6.
Knock-down of Hr51 [DRSC06627] gave: mean viability with MMS 3.53e6; viability with MMS, replicate 1 = 4.05e6.
Against Hr51 [DRSC22829], the values are mean viability with MMS 3.52e6; viability with MMS, replicate 1 = 4.09e6.
With knock-down of DCTN4-p62 [DRSC06101], the record shows mean viability with MMS 3.41e6; viability with MMS, replicate 1 = 3.93e6.
After knock-down of CG14861 [DRSC14984], the screen gave mean viability with MMS 3.42e6; viability with MMS, replicate 1 = 3.76e6.
With knock-down of CG2157 [DRSC19836] the results were mean viability with MMS 3.59e6; viability with MMS, replicate 1 = 4.12e6.
For Fam92 [DRSC02952], the entry reads mean viability with MMS 3.55e6; viability with MMS, replicate 1 = 4.03e6.
With knock-down of Surf1 [DRSC11295] the results were mean viability with MMS 3.34e6; viability with MMS, replicate 1 = 3.68e6.
Silencing of Surf1 [DRSC11394] came out at: mean viability with MMS 3.69e6; viability with MMS, replicate 1 = 4.15e6.
After knock-down of CG42699 [DRSC18076], the record shows mean viability with MMS 3.63e6; viability with MMS, replicate 1 = 4.10e6.
Against CG42699 [DRSC18341], the entry reads mean viability with MMS 3.49e6; viability with MMS, replicate 1 = 3.99e6.
Depletion of Sirt1 [DRSC03435] gave: mean viability with MMS 3.37e6; viability with MMS, replicate 1 = 3.62e6.
Knock-down of CG6012 [DRSC02921] gave: mean viability with MMS 3.52e6; viability with MMS, replicate 1 = 4.10e6.
